Data reported in patent publication US4837371A, “Process for concentration of an aqueous solution of amino acid” (Mitsui Toatsu Chemicals, Inc., priority 1986, dated 1989).

Tests used:
[1] = reverse osmosis, exclusion ratio with HR98 membrane (Example 1); conditions: HR98, 15 wt% isopropyl alcohol, 1 wt% L-tryptophan, pH 3.0, 40° C., 40 kg/cm^2
[2] = reverse osmosis, exclusion ratio with NF40HF membrane (Example 1); conditions: 15 wt% isopropyl alcohol, 1 wt% L-tryptophan, pH 3.0, 40° C., 40 kg/cm^2
[3] = reverse osmosis, exclusion ratio with NF70 membrane (Example 3); conditions: NF70, 15 wt% isopropyl alcohol, 1 wt% L-tryptophan, pH 9.5, 40° C., 15 kg/cm^2
[4] = exclusion ratio for solute in a wholly circulating method, varying the pH (Example 5); conditions: 40° C., 40 kg/cm^2

Compound	exclusion ratio [1] [%]	exclusion ratio [2] [%]	exclusion ratio [3] [%]	exclusion ratio ([4]; pH 1.8, 15 wt% tert-butyl alcohol) [%]	exclusion ratio ([4]; pH 5.9, 15 wt% tert-butyl alcohol) [%]
N[C@@H](Cc1c[nH]c2ccccc12)C(=O)O [L-tryptophan]	98.5	89.7	90.6	85.0	69.5
CC(C)O [isopropyl alcohol]	79.0	19.6	16.0		
